Experimental data taken from publication doi:10.1101/2023.11.13.566796.

Sequences of proteins named here, by UniProt entry; tags and fusion partners are left off.
UniProt P49024: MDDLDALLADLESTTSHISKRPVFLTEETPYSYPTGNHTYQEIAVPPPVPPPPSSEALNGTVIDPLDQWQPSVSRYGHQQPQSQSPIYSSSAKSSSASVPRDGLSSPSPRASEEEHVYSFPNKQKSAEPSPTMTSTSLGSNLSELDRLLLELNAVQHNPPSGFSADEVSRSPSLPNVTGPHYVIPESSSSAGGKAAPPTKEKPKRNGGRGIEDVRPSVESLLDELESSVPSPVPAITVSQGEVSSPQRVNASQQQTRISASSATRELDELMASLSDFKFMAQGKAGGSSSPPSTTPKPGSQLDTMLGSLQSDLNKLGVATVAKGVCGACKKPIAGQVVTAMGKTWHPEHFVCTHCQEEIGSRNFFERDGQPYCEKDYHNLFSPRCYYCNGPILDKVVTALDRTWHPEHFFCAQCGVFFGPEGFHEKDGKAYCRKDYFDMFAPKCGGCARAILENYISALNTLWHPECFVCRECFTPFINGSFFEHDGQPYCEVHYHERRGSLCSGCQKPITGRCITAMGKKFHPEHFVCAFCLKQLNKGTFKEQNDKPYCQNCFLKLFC

Assays:
[1] = biological target: GFP-paxillin (UniProt P49024); test: co-IP
[2] = biological target: T1, FLAG-BNIP-2 (human) (UniProt Q12982); test: co-IP
T1 sequence: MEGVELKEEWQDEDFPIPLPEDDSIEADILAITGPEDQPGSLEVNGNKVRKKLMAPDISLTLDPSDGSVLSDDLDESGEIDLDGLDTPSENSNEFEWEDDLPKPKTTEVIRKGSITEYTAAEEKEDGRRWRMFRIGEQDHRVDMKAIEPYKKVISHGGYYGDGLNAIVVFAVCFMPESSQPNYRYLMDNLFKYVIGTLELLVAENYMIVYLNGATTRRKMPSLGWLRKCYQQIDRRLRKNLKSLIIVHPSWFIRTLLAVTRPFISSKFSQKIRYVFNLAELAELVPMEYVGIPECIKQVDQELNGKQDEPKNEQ

[3] = biological target: BNIP-2 (endogenous, H9c2) (rat (endogenous in H9c2)); test: proximity ligation

## mCherry-vinculin (from UniProt P18206-2)
[1]
  binding: binds

## GFP-vinculin (from UniProt P18206-2)
[2]
  binding: binds

B1: vinculin (endogenous, H9c2) (protein, UniProt P85972 1-1066)
chain: MPVFHTRTIESILEPVAQQISHLVIMHEEGEVDGKAIPDLTAPVAAVQAAVSNLVRVGKETVQTTEDQILKRDMPPAFIKVENACTKLVQAAQMLQSDPYSVPARDYLIDGSRGILSGTSDLLLTFDEAEVRKIIRVCKGILEYLTVAEVVETMEDLVTYTKNLGPGMTKMAKMIDERQQELTHQEHRVMLVNSMNTVKELLPVLISAMKIFVTTKNSKNQGIEEALKNRNFTVGKMSAEINEIIRVLQLTSWDEDAWASKDTEAMKRALASIDSKLNQAKGWLRDPNASPGDAGEQAIRQILDEAGKVGELCAGKERREILGTCKMLGQMTDQVADLRARGQGASPVAMQKAQQVSQGLDVLTAKVENAARKLEAMTNSKQSIAKKIDAAQNWLADPNGGPEGEEQIRGALAEARKIAELCDDPKERDDILRSLGEIAALTSKLGDLRRQGKGDSPEARALAKQVATALQNLQTKTNRAVANSRPAKAAVHLEGKIEQAQRWIDNPTVDDRGVGQAAIRGLVAEGHRLANVMMGPYRQDLLAKCDRVDQLAAQLADLAARGEGESPQARALASQLQDSLKDLKTQMQEAMTQEVSDVFSDTTTPIKLLAVAATAPPDAPNREEVFDERAANFENHSGRLGATAEKAAAVGAANKSTVEGIQASVKTARELTPQVISAARILLRNPGNQAAYEHFETMKNQWIDNVEKMTGLVDEAIDTKSLLDASEEAIKKDLDKCKVAMANIQPQMLVAGATSIARRANRILLVAKREVENSEDPKFREAVKAASDELSKTISPMVMDAKAVAGNISDPGLQKSFLDSGYRILGAVAKVREAFQPQEPDFPPPPPDLEQLRLTDELAPPKPPLPEGEVPPPRPPPPEEKDEEFPEQKAGEVINQPMMMAARQLHDEARKWSSKGNDIIAAAKRMALLMAEMSRLVRGGSGTKRALIQCAKDIAKASDEVTRLAKEVAKQCTDKRIRTNLLQVCERIPTISTQLKILSTVKATMLGRTNISDEESEQATEMLVHNAQNLMQSVKETVREAEAASIKIRTDAGFTLRWVRKTPWYQ
[3]
  binding: binds

No constants are given. Whether binding was seen depends on the method and setting. Binding seen in cells or lysates may run through a third protein. Binding can be weak; no strength is given. For part of these data: Tags and fused reporters may be left off the sequences shown.
